The values that follow come from publication PMC5453608.

For at least one entry, the source does not settle the construct or the ends of the probe.

The subject of the data set is Foxd.b DNA-binding domain-GST fusion (Ciona intestinalis). In words: EMSA. The note with it: 50 ng/uL poly(dIdC), 3' terminal TTT of each strand is biotin-11-dU (fill-in of the 5' AAA overhangs of S2/S3), 10 mM Tris pH 7.5, 50 mM KCl, 1 mM DTT, 1 mM EDTA, 2.5% glycerol, 0.05% NP40, temperature not stated, recombinant protein, protein details: GST, label: biotin, letters put together from the description. (In general: A gel shift assay detects complexes by their altered migration in electrophoresis.)

For “AAATAACAATAATGTTTACGTTGGTTTT (double strand) [Dmrt1 upstream Fox site probe]”, the binding result is listed as “binds”.
